What all share (conditions): 10 µM; pre-incubation: 30-90 min
The subject of assay [1] is Danio rerio larvae (5 dpf, TLF). In words: OMR-Perf (SSMD vs DMSO vehicle); higher = higher than vehicle (e.g. higher dark-flash O-bend response probability, or better optomotor performance).
Assay [2] shares this test system. Put plainly: Prob-Test (SSMD vs DMSO vehicle); higher = higher than vehicle (e.g. higher dark-flash O-bend response probability, or better optomotor performance).
The test system is the same in assay [3]. Put plainly: Prob-Naive (SSMD vs DMSO vehicle); higher = higher than vehicle (e.g. higher dark-flash O-bend response probability, or better optomotor performance).
Assay [4] has the same test system. In words: Prob-Train (SSMD vs DMSO vehicle); higher = higher than vehicle (e.g. higher dark-flash O-bend response probability, or better optomotor performance).

The record followed here is the supplement of paper PMC10727501.

This is one part of the list. This data set is noisy: repeats of one test often differ as much as different tests do.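 Researchers measured free-swimming zebrafish larvae's O-bend response probability to dark flashes (naive: first five; training: remaining flashes of four 60-flash blocks; test: later 60-flash block) and OMR turning toward alternating leftward/rightward LED motion. Six treated larvae were compared to sixty 0.1% DMSO controls, with |SSMD|≥2 marking a hit.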

In the case of `CN1CCc2c(c3ccccc3n2Cc2ccc(C(=O)NO)cc2)C1.Cl` [Tubastatin A HCl], the OMR-Perf in assay [1] is -0.211. The same molecule had a Prob-Test in assay [2] of -0.125. Besides, the Prob-Naive in assay [3] amounted to 0.446. This molecule yielded a Prob-Train in assay [4] of 0.402.

`O=C(Nc1cccc(Cl)c1)c1ccccn1`: the OMR-Perf in assay [1] was -0.5. For the same molecule, the Prob-Test in assay [2] amounted to 0.217. In assay [3], this molecule displayed a Prob-Naive of -0.541. This molecule had a Prob-Train in assay [4] of -0.373.

The molecule `CN1CCN(c2cccc(Nc3nc4c(-c5ccc(S(C)(=O)=O)cc5)cccn4n3)c2)CC1` gave an OMR-Perf in assay [1] of -0.0699. Also, the Prob-Test in assay [2] was -0.412. Also, the Prob-Naive in assay [3] is 0.319. The molecule further had a Prob-Train in assay [4] of -0.685.

On to `O=C(O)/C=C/c1ccc(Cn2ccnc2)cc1` [Ozagrel], for which, in assay [1], the OMR-Perf amounted to 0.532. The same molecule gave a Prob-Test in assay [2] of -0.993. In assay [3], the Prob-Naive was determined as 0.118. In assay [4], this molecule had a Prob-Train of -0.238.

Take `CC(CNC(=O)c1cccnc1)NC(=O)c1cccnc1` (stereo unspecified) [Nicaraven]: in assay [1], the OMR-Perf was -0.304. Besides, the Prob-Test in assay [2] amounted to 0.0398. Further, the Prob-Naive in assay [3] is -0.0588. The molecule also had a Prob-Train in assay [4] of -0.423.

In assay [1], `CC(C)NCC(O)COc1ccc(CCOCC2CC2)cc1` (stereo unspecified) [Betaxolol] yielded an OMR-Perf of 0.274. In addition, in assay [2], the Prob-Test is -0.14. The molecule also came in with a Prob-Naive in assay [3] of -0.171. For the same molecule, in assay [4], the Prob-Train is -0.113.

Regarding `CCC(=O)Nc1cccc(Oc2nc(Nc3ccc(N4CCN(C)CC4)cc3OC)ncc2Cl)c1`, the OMR-Perf in assay [1] was -0.586. The molecule also came in with a Prob-Test in assay [2] of -0.125. This molecule registered a Prob-Naive in assay [3] of 0.227. This molecule returned a Prob-Train in assay [4] of -0.254.

As for `Cn1cc(-c2ccc3nnc(C(F)(F)c4ccc5ncccc5c4)n3n2)cn1`, the OMR-Perf in assay [1] turned out to be 0.229. Further, the Prob-Test in assay [2] is -0.751. In addition, the Prob-Naive in assay [3] was -0.285. In assay [4], this molecule came in with a Prob-Train of -0.596.

As for `CCN(CC)CCCCNc1ncc2cc(-c3cc(OC)cc(OC)c3)c(NC(=O)NC(C)(C)C)nc2n1`, the OMR-Perf in assay [1] is -0.575. In assay [2], this molecule registered a Prob-Test of -0.139. For the same molecule, the Prob-Naive in assay [3] is 0.471. The same molecule gave a Prob-Train in assay [4] of -0.367.

Regarding `COc1ccc2cc([C@H](C)C(=O)[O-])ccc2c1.[Na+]` [Naproxen], the OMR-Perf in assay [1] was -0.285. Also, the Prob-Test in assay [2] was -0.493. This molecule displayed a Prob-Naive in assay [3] of -0.862. The Prob-Train in assay [4] was -1.35.

Take `OCc1c[nH]c2ccccc12` [Indole-3-carbinol]: the OMR-Perf in assay [1] was -0.161. The Prob-Test in assay [2] was -0.0963. The Prob-Naive in assay [3] is -0.219. In assay [4], the Prob-Train was -0.467.

Molecule `CC(=O)Oc1cc2c(s1)CCN(C(C(=O)C1CC1)c1ccccc1F)C2` (stereo unspecified) [Prasugrel] gave an OMR-Perf in assay [1] of -0.111. In addition, the Prob-Test in assay [2] was -0.494. For the same molecule, the Prob-Naive in assay [3] is -0.551. The Prob-Train in assay [4] is -1.61.

On to `Cc1ccc(S(=O)(=O)n2c(N)nc3ccccc32)cc1` [ML130 (Nodinitib-1)], for which, in assay [1], the OMR-Perf was -0.459. The Prob-Test in assay [2] is -0.971. Besides, in assay [3], the Prob-Naive was -0.388. This molecule came in with a Prob-Train in assay [4] of -2.31.

For the molecule `CN1CCN(C(=O)c2cc3cc(Cl)ccc3[nH]2)CC1`, the OMR-Perf in assay [1] was -0.44. The same molecule gave a Prob-Test in assay [2] of 0.107. The same molecule displayed a Prob-Naive in assay [3] of 0.651. In assay [4], this molecule displayed a Prob-Train of -0.0958.

With `C[C@H]1C[C@@H]2[C@@H]([C@H](O)C[C@@]3(C)[C@H]2CC[C@@]3(O)C(=O)CO)[C@@]2(C)C=CC(=O)C=C12` [Methylprednisolone], the OMR-Perf in assay [1] is 0.0911. The same molecule registered a Prob-Test in assay [2] of -0.256. In assay [3], this molecule returned a Prob-Naive of -0.424. This molecule gave a Prob-Train in assay [4] of -0.783.

For the molecule `COc1cc2c(Nc3ccc(NC(=O)c4ccccc4)cc3)ncnc2cc1OCCCN1CCOCC1`, the OMR-Perf in assay [1] was -0.255. The molecule further gave a Prob-Test in assay [2] of -0.387. The molecule further came in with a Prob-Naive in assay [3] of 0.437. The same molecule yielded a Prob-Train in assay [4] of -0.586.

On to `CN(C)CCCN1c2ccccc2Sc2ccc(C(F)(F)F)cc21.Cl` [Triflupromazine HCl], for which, in assay [1], the OMR-Perf is -0.623. The Prob-Test in assay [2] is -1.37. The molecule further registered a Prob-Naive in assay [3] of -0.392. Moreover, the Prob-Train in assay [4] was -1.49.

In assay [1], `CC(=O)N1CCN(c2ccc(OC[C@H]3CO[C@](Cn4ccnc4)(c4ccc(Cl)cc4Cl)O3)cc2)CC1` [Ketoconazole] registered an OMR-Perf of -0.316. Also, in assay [2], the Prob-Test was -0.309. Also, the Prob-Naive in assay [3] came out at 0.0846. This molecule returned a Prob-Train in assay [4] of -0.24.

The molecule `CCCc1cc(=O)[nH]c(=S)[nH]1` [Propylthiouracil] showed an OMR-Perf in assay [1] of -0.555. The molecule also registered a Prob-Test in assay [2] of -0.023. For the same molecule, the Prob-Naive in assay [3] was 0.0498. Besides, the Prob-Train in assay [4] was 0.0569.
